# Results: the supplement of paper PMC8728848
# Some of the results follow.
# B1: PEB3 (Campylobacter jejuni), Q0PBL7 (protein)
# chain: MKKIITLFGACALAFSMANADVNLYGPGGPHTALKDIANKYSEKTGVKVNVNFGPQATWFEKAKKDADILFGASDQSALAIASDFGKDFNVSKIKPLYFREAIILTQKGNPLKIKGLKDLANKKVRIVVPEGAGKSNTSGTGVWEDMIGRTQDIKTIQNFRNNIVAFVPNSGSARKLFAQDQADAWITWIDWSKSNPDIGTAVAIEKDLVVYRTFNVIAKEGASKETQDFIAYLSSKEAKEIFKKYGWRE
# Key:
# Experiment in all cases: glycan array binding signal (z-score within array); higher = stronger binding
# Settings in all cases: glycan notation: IUPAC condensed, linker removed
# Fuc(a1-2)Gal = target: Fuc(a1-2)Gal
# How it was run: (§1)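 The Consortium for Functional Glycomics database supplied 3228 glycan arrays, of which those lacking an available protein sequence were dropped. The binding signal, a within-array Z-score, was averaged across arrays of the same protein sequence and across linkers. Negative scores can be read as non-binding.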
# Fuc(a1-2)Gal(b1-3)GalNAc = target: Fuc(a1-2)Gal(b1-3)GalNAc
# How it was run: as §1
# [1] = target: Fuc(a1-2)Gal(b1-3)GalNAc(a1-3)[Fuc(a1-2)]Gal(b1-4)Glc
# How it was run: as §1
# [2] = target: Fuc(a1-2)Gal(b1-3)GalNAc(a1-3)[Fuc(a1-2)]Gal(b1-4)GlcNAc
# How it was run: as §1
# [3] = target: Fuc(a1-2)Gal(b1-3)GalNAc(b1-3)Gal
# How it was run: as §1
# [4] = target: Fuc(a1-2)Gal(b1-3)GalNAc(b1-3)Gal(a1-4)Gal(b1-4)Glc
# How it was run: as §1
# [5] = target: Fuc(a1-2)Gal(b1-3)GalNAc(b1-4)[Neu5Ac(a2-3)]Gal(b1-4)Glc
# How it was run: as §1
# Fuc(a1-2)Gal(b1-3)GlcNAc = target: Fuc(a1-2)Gal(b1-3)GlcNAc
# How it was run: as §1
# [6] = target: Fuc(a1-2)Gal(b1-3)GlcNAc(b1-2)Man(a1-3)[Fuc(a1-2)Gal(b1-3)GlcNAc(b1-2)Man(a1-6)]Man(b1-4)GlcNAc(b1-4)GlcNAc
# How it was run: as §1
# [7] = target: Fuc(a1-2)Gal(b1-3)GlcNAc(b1-3)Gal(b1-4)Glc
# How it was run: as §1
# [8] = target: Fuc(a1-2)Gal(b1-3)GlcNAc(b1-3)[Fuc(a1-3)[Gal(b1-4)]GlcNAc(b1-6)]Gal(b1-4)Glc
# How it was run: as §1
# [9] = target: Fuc(a1-2)Gal(b1-3)[Fuc(a1-4)]GlcNAc
# How it was run: as §1
# [10] = target: Fuc(a1-2)Gal(b1-3)[Fuc(a1-4)]GlcNAc(b1-2)Man(a1-3)[Fuc(a1-2)Gal(b1-3)[Fuc(a1-4)]GlcNAc(b1-2)Man(a1-6)]Man(b1-4)GlcNAc(b1-4)GlcNAc
# How it was run: as §1
# [11] = target: Fuc(a1-2)Gal(b1-3)[Fuc(a1-4)]GlcNAc(b1-3)[Fuc(a1-3)[Gal(b1-4)]GlcNAc(b1-6)]Gal(b1-4)Glc
# How it was run: as §1
# [12] = target: Fuc(a1-2)Gal(b1-3)[Fuc(a1-4)]GlcNAc(b1-3)[Gal(b1-4)GlcNAc(b1-6)]Gal(b1-4)Glc
# How it was run: as §1
# Fuc(a1-2)Gal(b1-4)Glc = target: Fuc(a1-2)Gal(b1-4)Glc
# How it was run: as §1
# Fuc(a1-2)Gal(b1-4)Glc6S = target: Fuc(a1-2)Gal(b1-4)Glc6S
# How it was run: as §1
# Fuc(a1-2)Gal(b1-4)GlcNAc = target: Fuc(a1-2)Gal(b1-4)GlcNAc
# How it was run: as §1
# [13] = target: Fuc(a1-2)Gal(b1-4)GlcNAc(b1-2)Man(a1-3)[Fuc(a1-2)Gal(b1-4)GlcNAc(b1-2)Man(a1-6)]Man(b1-4)GlcNAc(b1-4)GlcNAc
# How it was run: as §1
# [14] = target: Fuc(a1-2)Gal(b1-4)GlcNAc(b1-3)Gal(b1-4)GlcNAc
# How it was run: as §1
# [15] = target: Fuc(a1-2)Gal(b1-4)GlcNAc(b1-3)Gal(b1-4)GlcNAc(b1-3)Gal(b1-4)GlcNAc
# How it was run: as §1
# [16] = target: Fuc(a1-2)Gal(b1-4)GlcNAc(b1-3)GalNAc
# How it was run: as §1
# [17] = target: Fuc(a1-2)Gal(b1-4)GlcNAc6S
# How it was run: as §1
# [18] = target: Fuc(a1-2)Gal(b1-4)[Fuc(a1-3)]GlcNAc
# How it was run: as §1
# [19] = target: Fuc(a1-2)Gal(b1-4)[Fuc(a1-3)]GlcNAc(b1-2)Man(a1-3)[Fuc(a1-2)Gal(b1-4)[Fuc(a1-3)]GlcNAc(b1-2)Man(a1-6)]Man(b1-4)GlcNAc(b1-4)GlcNAc
# How it was run: as §1
# [20] = target: Fuc(a1-2)Gal(b1-4)[Fuc(a1-3)]GlcNAc(b1-3)Gal(b1-4)[Fuc(a1-3)]GlcNAc
# How it was run: as §1
# [21] = target: Fuc(a1-2)Gal(b1-4)[Fuc(a1-3)]GlcNAc(b1-3)Gal(b1-4)[Fuc(a1-3)]GlcNAc(b1-3)Gal(b1-4)[Fuc(a1-3)]GlcNAc
# How it was run: as §1
# Fuc(a1-2)Gal6S(b1-4)Glc = target: Fuc(a1-2)Gal6S(b1-4)Glc
# How it was run: as §1
# [22] = target: Fuc(a1-2)Gal6S(b1-4)Glc6S
# How it was run: as §1
# [23] = target: Fuc(a1-2)Gal6S(b1-4)GlcNAc
# How it was run: as §1
# Fuc(a1-2)[Gal(a1-3)]Gal = target: Fuc(a1-2)[Gal(a1-3)]Gal
# How it was run: as §1
# [24] = target: Fuc(a1-2)[Gal(a1-3)]Gal(b1-3)GlcNAc
# How it was run: as §1
# [25] = target: Fuc(a1-2)[Gal(a1-3)]Gal(b1-3)GlcNAc(b1-2)Man(a1-3)[Fuc(a1-2)[Gal(a1-3)]Gal(b1-3)GlcNAc(b1-2)Man(a1-6)]Man(b1-4)GlcNAc(b1-4)GlcNAc
# How it was run: as §1
# [26] = target: Fuc(a1-2)[Gal(a1-3)]Gal(b1-4)Glc
# How it was run: as §1
# [27] = target: Fuc(a1-2)[Gal(a1-3)]Gal(b1-4)GlcNAc
# How it was run: as §1
# [28] = target: Fuc(a1-2)[Gal(a1-3)]Gal(b1-4)GlcNAc(b1-2)Man(a1-3)[Fuc(a1-2)[Gal(a1-3)]Gal(b1-4)GlcNAc(b1-2)Man(a1-6)]Man(b1-4)GlcNAc(b1-4)GlcNAc
# How it was run: as §1
# [29] = target: Fuc(a1-2)[Gal(a1-3)]Gal(b1-4)[Fuc(a1-3)]GlcNAc
# How it was run: as §1
binder,measurement,setting,value
B1,glycan array binding signal (z-score),Fuc(a1-2)Gal,-0.558
same,glycan array binding signal (z-score),Fuc(a1-2)Gal(b1-3)GalNAc,0.049
same,glycan array binding signal (z-score),[1],0.632
same,glycan array binding signal (z-score),[2],0.04
same,glycan array binding signal (z-score),[3],0.519
same,glycan array binding signal (z-score),[4],-0.105
same,glycan array binding signal (z-score),[5],0.671
same,glycan array binding signal (z-score),Fuc(a1-2)Gal(b1-3)GlcNAc,0.854
same,glycan array binding signal (z-score),[6],0.377
same,glycan array binding signal (z-score),[7],0.665
same,glycan array binding signal (z-score),[8],0.12
same,glycan array binding signal (z-score),[9],7.5
same,glycan array binding signal (z-score),[10],0.672
same,glycan array binding signal (z-score),[11],0.638
same,glycan array binding signal (z-score),[12],2.31
same,glycan array binding signal (z-score),Fuc(a1-2)Gal(b1-4)Glc,0.179
same,glycan array binding signal (z-score),Fuc(a1-2)Gal(b1-4)Glc6S,0.932
same,glycan array binding signal (z-score),Fuc(a1-2)Gal(b1-4)GlcNAc,0.611
same,glycan array binding signal (z-score),[13],0.952
same,glycan array binding signal (z-score),[14],0.234
same,glycan array binding signal (z-score),[15],2.43
same,glycan array binding signal (z-score),[16],-0.26
same,glycan array binding signal (z-score),[17],0.544
same,glycan array binding signal (z-score),[18],-0.866
same,glycan array binding signal (z-score),[19],4.64
same,glycan array binding signal (z-score),[20],-0.389
same,glycan array binding signal (z-score),[21],0.435
same,glycan array binding signal (z-score),Fuc(a1-2)Gal6S(b1-4)Glc,-0.555
same,glycan array binding signal (z-score),[22],-0.731
same,glycan array binding signal (z-score),[23],-0.248
same,glycan array binding signal (z-score),Fuc(a1-2)[Gal(a1-3)]Gal,-0.136
same,glycan array binding signal (z-score),[24],-0.229
same,glycan array binding signal (z-score),[25],0.362
same,glycan array binding signal (z-score),[26],-1.35
same,glycan array binding signal (z-score),[27],0.283
same,glycan array binding signal (z-score),[28],1.42
same,glycan array binding signal (z-score),[29],-0.405

# Reprinted at random: 2 records from the list
binder,measurement,setting,value
B1,glycan array binding signal (z-score),[29],-0.405
same,glycan array binding signal (z-score),[1],0.632
